Measurements from patent US20120190612A1, “METHODS OF TREATMENT” (CRC FOR ASTHMA AND AIRWAYS LTD., priority 2009, published 2012).
No constants are given. Whether binding was seen depends on the method and setting. Some results given as binding are weak or reduced against the parent protein; the word gives no strength.

By UniProt entry, the sequences of proteins in these tests, tags left out. Where a name states a change or a piece, a line headed by the entry shows the natural chain unless it says otherwise. Residues count along the entry.
UniProt P08648, residues 42-1049: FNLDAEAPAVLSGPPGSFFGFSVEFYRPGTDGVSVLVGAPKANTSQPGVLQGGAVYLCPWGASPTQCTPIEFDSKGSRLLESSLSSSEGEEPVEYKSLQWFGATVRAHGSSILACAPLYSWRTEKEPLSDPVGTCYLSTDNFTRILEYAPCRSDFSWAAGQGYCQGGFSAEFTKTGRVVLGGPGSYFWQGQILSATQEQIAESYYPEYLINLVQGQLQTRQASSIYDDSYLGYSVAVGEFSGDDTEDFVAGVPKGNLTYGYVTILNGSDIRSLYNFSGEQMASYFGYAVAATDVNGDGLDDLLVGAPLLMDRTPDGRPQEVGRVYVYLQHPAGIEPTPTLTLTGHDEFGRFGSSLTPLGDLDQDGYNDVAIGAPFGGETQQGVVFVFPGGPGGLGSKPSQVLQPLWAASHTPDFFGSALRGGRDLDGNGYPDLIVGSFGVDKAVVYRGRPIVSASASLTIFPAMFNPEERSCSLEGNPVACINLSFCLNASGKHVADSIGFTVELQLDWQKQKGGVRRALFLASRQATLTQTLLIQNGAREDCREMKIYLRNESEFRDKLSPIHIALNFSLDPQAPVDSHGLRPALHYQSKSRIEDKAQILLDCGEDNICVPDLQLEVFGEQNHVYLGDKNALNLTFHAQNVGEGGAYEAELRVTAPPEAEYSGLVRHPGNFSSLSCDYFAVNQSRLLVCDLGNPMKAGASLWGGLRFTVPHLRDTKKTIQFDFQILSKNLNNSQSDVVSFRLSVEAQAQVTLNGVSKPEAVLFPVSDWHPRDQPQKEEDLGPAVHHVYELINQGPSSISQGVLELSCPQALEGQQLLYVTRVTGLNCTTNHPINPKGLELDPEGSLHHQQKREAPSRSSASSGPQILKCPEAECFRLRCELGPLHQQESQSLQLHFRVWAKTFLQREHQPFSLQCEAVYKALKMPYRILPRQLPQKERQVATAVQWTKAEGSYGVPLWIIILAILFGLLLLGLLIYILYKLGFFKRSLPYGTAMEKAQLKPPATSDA
UniProt P05556: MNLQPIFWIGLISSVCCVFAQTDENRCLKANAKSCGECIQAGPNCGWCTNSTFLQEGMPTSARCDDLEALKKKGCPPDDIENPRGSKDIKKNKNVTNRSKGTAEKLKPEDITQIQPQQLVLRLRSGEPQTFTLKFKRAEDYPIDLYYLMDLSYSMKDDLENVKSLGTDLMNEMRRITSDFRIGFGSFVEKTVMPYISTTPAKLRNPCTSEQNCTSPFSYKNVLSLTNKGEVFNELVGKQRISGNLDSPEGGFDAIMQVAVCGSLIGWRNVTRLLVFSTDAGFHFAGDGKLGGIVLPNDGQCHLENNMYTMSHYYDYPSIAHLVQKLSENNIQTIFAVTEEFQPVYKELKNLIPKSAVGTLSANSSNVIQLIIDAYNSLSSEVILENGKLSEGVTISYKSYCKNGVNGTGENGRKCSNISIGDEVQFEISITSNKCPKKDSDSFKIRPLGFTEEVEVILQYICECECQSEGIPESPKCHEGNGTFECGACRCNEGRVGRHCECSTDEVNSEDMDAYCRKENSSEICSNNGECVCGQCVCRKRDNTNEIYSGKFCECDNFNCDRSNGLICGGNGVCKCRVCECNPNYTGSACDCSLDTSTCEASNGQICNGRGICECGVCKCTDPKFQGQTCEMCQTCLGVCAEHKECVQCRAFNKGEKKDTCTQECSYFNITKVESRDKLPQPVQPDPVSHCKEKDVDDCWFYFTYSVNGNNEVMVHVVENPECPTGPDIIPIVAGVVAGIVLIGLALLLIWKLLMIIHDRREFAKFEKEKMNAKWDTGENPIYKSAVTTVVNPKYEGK
UniProt P29400: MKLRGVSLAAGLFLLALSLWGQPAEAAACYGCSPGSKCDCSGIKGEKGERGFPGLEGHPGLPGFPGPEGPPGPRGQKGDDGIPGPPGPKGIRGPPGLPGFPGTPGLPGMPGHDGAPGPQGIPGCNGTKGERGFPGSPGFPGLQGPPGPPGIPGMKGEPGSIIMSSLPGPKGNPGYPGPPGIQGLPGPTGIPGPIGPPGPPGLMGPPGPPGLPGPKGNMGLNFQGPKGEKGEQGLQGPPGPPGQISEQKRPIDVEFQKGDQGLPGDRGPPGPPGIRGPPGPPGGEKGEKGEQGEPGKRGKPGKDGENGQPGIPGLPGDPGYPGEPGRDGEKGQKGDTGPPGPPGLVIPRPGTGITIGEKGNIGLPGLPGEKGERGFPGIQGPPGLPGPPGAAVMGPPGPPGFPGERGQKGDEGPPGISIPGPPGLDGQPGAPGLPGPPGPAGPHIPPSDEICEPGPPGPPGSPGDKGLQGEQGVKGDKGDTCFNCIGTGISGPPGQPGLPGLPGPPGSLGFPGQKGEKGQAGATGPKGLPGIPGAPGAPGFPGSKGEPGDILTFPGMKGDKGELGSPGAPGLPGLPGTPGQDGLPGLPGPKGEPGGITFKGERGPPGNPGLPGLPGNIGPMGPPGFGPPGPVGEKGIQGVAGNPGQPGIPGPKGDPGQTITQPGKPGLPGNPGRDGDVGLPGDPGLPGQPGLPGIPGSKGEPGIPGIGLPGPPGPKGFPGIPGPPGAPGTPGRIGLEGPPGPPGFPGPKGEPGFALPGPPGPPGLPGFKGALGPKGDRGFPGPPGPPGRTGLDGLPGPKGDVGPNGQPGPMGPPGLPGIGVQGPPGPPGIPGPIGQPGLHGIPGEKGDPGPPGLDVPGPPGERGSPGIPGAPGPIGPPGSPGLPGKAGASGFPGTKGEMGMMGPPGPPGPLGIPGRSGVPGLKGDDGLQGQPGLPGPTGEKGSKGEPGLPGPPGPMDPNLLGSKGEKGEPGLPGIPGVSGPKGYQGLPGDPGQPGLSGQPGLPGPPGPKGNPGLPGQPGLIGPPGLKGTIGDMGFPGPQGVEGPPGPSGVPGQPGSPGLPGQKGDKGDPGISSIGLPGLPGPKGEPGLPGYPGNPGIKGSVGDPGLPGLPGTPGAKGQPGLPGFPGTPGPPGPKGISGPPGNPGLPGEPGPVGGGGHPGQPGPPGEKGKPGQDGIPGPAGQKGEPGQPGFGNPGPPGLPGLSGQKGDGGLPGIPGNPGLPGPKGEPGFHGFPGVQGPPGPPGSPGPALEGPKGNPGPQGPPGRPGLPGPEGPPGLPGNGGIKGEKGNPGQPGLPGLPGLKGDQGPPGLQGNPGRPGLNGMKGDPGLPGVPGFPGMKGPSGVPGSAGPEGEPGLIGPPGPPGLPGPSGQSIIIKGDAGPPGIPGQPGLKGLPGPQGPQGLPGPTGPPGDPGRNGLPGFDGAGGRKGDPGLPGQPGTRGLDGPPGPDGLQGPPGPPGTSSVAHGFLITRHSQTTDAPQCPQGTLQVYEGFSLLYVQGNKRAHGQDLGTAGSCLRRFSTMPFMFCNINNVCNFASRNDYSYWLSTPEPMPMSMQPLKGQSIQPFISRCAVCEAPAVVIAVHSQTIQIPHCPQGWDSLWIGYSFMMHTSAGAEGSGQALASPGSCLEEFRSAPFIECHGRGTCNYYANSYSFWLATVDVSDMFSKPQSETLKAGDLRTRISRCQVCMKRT
UniProt Q01955: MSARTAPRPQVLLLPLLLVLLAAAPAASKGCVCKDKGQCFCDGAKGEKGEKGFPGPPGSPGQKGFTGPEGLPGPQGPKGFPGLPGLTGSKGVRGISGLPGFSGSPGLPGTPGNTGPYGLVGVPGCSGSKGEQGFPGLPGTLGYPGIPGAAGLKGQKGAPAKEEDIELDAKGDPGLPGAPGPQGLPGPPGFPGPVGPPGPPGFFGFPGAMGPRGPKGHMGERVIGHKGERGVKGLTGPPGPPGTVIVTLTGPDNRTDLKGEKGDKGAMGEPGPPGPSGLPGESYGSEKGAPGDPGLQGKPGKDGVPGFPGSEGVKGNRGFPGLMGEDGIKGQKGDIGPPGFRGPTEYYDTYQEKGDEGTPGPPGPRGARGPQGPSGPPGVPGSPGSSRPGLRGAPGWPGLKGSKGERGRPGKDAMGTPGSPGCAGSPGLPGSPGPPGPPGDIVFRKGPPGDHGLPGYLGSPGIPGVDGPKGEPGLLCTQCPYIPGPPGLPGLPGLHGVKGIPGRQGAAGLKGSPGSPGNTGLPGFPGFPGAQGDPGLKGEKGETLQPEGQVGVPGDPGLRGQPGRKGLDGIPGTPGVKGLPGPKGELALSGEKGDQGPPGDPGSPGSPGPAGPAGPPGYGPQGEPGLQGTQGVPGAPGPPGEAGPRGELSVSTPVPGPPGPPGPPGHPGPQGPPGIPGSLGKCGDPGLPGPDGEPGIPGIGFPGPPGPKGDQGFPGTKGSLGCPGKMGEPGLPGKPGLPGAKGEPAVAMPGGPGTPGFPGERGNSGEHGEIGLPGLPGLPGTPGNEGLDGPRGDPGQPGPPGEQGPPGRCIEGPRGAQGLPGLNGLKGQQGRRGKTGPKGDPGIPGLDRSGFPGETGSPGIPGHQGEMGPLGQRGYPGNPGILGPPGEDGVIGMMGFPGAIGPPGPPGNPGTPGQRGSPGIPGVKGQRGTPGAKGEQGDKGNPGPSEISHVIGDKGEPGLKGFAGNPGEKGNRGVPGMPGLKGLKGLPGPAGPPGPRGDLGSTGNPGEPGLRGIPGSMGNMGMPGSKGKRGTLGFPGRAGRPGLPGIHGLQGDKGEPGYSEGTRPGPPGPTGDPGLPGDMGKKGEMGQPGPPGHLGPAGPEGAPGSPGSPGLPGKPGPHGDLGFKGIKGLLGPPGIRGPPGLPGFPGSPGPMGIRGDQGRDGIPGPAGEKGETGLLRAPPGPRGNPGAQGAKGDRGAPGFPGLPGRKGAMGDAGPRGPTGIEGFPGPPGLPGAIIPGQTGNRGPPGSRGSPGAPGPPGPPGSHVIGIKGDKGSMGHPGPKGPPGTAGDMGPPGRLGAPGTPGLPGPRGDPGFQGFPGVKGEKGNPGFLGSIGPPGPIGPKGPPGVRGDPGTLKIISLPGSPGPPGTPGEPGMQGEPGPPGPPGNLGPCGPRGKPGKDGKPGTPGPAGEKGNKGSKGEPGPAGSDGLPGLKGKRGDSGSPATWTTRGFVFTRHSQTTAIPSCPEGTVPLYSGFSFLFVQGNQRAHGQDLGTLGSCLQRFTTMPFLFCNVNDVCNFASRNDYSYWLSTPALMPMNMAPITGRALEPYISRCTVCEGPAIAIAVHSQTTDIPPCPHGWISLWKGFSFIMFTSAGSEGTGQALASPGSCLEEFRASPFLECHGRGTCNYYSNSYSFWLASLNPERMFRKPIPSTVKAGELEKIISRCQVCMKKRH

Experiments:
[1] = target: integrin α5 on HMVEC-LLy cells (human) (UniProt P08648); experiment: HMVEC-LLy cell attachment with anti-integrin antibodies, lamstatin 10 µg/ml
[2] = target: integrin β1 on HMVEC-LLy cells (human) (UniProt P05556); experiment: as above
[3] = target: integrin α5 on HMVEC-LLy cells (human) (UniProt P08648); experiment: HMVEC-LLy cell binding in vitro, integrin identification
[4] = target: integrin β1 on HMVEC-LLy cells (human) (UniProt P05556); experiment: as above

Measured: binding

lamstatin (NC1 domain of the α5 chain of collagen type IV) (from UniProt P29400 1461-1685) (ligand)
binds: all assays above

tumstatin (NC1 domain of the α3 chain of collagen type IV) (from UniProt Q01955 1445-1670) (ligand)
binds: [3] | [4]
